Experimental data: paper doi:10.1101/2025.04.21.649502
Like-named read-outs stand apart in the source and are kept apart here. No constants are given. Whether binding was seen depends on the method and setting. Binding seen in cells or lysates may run through a third protein. Some results given as binding are weak or reduced against the parent protein; the word gives no strength. For some of these results: Tags and fused reporters may be left off the sequences shown.

Chains of the proteins cited; added tags and fusions are not shown.
UniProt Q8IWR0: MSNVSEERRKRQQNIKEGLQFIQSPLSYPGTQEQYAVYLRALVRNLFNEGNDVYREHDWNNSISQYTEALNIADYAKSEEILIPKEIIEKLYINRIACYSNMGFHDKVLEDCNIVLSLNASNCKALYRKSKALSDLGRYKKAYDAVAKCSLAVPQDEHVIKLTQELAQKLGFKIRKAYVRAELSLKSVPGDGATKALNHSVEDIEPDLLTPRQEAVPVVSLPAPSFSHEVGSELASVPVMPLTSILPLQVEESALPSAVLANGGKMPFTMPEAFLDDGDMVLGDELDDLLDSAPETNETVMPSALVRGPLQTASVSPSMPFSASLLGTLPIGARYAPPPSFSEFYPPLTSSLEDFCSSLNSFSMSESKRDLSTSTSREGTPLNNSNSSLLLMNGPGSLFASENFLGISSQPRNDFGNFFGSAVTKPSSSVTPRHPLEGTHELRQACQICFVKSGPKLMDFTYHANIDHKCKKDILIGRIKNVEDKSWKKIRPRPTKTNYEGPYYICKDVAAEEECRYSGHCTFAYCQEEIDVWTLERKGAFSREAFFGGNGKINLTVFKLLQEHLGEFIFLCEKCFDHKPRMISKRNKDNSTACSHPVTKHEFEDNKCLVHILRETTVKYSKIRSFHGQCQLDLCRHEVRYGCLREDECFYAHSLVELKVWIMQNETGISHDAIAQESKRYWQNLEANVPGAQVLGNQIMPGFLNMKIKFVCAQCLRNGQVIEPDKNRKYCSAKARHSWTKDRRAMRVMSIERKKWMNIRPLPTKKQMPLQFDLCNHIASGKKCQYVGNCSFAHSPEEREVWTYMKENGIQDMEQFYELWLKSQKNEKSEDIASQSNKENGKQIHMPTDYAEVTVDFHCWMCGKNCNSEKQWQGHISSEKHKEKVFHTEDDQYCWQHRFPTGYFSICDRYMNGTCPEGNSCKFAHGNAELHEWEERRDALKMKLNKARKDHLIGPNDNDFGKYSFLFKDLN
UniProt A5YKK6: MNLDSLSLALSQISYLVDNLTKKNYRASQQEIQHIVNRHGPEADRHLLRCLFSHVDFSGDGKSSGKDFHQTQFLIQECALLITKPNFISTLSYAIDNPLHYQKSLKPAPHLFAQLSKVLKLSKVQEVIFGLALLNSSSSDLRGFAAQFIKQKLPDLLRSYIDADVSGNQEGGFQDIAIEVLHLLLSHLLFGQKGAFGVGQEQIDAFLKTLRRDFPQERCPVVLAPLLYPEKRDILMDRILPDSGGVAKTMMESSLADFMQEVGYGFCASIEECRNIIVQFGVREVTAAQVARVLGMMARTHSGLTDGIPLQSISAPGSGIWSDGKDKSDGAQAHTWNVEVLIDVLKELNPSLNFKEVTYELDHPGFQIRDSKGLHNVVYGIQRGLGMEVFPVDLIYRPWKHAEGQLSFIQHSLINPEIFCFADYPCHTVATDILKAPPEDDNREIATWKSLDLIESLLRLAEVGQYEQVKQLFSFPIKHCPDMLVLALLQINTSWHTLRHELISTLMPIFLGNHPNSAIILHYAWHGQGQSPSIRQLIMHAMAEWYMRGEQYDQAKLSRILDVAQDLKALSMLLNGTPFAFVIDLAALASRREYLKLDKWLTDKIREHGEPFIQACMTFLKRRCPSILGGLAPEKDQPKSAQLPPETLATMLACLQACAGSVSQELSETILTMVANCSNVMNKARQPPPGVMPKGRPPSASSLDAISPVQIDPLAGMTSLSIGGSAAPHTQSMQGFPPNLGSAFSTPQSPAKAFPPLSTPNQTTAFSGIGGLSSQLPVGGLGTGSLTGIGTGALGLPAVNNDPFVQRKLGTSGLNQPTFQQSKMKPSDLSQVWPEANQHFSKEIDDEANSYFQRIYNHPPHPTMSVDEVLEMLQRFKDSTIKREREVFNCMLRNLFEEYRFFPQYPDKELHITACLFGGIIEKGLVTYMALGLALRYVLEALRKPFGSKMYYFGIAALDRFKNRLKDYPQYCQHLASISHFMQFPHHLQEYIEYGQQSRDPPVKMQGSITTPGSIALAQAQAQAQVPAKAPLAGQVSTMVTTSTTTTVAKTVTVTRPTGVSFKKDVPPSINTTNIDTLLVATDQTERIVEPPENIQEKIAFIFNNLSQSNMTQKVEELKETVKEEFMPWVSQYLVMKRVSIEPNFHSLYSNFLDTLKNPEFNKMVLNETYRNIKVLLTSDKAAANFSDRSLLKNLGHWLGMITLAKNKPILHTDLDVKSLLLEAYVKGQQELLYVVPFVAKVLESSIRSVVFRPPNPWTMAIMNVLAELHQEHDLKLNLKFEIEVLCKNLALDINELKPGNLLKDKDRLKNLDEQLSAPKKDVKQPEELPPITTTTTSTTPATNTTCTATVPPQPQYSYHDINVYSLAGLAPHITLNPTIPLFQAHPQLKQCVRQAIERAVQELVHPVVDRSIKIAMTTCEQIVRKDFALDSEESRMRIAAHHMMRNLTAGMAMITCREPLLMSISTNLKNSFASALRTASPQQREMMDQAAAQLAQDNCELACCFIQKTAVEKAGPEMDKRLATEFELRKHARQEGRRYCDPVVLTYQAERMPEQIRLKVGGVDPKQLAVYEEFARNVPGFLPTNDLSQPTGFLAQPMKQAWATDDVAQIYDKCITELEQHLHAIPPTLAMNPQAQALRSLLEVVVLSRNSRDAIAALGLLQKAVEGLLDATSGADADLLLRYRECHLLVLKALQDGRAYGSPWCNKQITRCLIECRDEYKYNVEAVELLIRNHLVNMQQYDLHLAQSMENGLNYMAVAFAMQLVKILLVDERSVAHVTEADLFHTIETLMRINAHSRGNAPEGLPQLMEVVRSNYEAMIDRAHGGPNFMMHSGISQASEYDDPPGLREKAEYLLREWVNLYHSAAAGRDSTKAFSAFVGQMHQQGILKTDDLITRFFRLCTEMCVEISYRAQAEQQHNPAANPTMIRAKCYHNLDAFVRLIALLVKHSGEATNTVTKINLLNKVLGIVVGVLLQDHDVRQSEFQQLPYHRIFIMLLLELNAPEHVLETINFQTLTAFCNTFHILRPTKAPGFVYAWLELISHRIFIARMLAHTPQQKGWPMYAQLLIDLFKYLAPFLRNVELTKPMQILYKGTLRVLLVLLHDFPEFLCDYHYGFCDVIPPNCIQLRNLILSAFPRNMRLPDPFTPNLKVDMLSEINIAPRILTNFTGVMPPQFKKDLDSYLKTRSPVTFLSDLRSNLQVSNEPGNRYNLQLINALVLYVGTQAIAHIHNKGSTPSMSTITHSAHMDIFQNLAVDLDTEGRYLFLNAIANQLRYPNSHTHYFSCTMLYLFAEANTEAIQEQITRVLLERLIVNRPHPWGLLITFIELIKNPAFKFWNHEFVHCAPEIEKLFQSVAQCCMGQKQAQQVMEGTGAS
UniProt O75175: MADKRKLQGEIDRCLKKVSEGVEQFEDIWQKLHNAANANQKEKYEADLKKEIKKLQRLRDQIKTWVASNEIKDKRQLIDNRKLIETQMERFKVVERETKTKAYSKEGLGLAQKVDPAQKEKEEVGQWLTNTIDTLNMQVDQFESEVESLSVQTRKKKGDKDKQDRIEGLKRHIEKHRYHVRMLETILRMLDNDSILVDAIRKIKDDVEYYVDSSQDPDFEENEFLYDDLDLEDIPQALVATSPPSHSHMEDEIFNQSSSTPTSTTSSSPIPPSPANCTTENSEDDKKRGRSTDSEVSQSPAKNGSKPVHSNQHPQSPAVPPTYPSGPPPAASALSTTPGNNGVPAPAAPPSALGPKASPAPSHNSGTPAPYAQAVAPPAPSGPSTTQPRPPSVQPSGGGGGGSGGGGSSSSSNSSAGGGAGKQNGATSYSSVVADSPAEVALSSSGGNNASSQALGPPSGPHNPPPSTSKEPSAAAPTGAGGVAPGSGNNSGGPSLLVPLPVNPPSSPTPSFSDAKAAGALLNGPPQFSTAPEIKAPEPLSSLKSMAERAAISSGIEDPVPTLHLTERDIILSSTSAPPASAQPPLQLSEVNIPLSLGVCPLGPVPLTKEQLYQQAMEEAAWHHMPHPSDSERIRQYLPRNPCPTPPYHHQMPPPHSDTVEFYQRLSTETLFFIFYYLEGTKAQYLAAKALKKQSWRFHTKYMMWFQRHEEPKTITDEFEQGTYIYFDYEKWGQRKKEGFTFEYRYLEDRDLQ
UniProt O60573: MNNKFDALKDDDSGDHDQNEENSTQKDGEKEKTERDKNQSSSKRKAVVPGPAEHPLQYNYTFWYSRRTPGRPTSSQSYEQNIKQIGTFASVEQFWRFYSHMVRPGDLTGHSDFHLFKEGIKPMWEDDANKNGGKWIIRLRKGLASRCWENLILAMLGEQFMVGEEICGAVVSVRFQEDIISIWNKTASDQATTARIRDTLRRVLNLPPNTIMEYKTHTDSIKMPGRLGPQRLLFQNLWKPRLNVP
UniProt Q9UIV1: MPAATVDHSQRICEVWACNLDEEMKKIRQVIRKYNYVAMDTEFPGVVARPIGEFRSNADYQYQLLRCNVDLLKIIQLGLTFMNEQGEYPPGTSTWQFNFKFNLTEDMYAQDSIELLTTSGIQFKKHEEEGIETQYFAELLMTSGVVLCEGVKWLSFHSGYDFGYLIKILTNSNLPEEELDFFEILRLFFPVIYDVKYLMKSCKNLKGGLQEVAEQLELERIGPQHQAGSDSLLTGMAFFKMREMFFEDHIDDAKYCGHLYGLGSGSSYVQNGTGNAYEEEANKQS

T1: Flag/HA-ZC3H7B (Zinc Finger CCCH-Type Containing 7B) (human) (UniProt Q9UGR2)
T1 sequence: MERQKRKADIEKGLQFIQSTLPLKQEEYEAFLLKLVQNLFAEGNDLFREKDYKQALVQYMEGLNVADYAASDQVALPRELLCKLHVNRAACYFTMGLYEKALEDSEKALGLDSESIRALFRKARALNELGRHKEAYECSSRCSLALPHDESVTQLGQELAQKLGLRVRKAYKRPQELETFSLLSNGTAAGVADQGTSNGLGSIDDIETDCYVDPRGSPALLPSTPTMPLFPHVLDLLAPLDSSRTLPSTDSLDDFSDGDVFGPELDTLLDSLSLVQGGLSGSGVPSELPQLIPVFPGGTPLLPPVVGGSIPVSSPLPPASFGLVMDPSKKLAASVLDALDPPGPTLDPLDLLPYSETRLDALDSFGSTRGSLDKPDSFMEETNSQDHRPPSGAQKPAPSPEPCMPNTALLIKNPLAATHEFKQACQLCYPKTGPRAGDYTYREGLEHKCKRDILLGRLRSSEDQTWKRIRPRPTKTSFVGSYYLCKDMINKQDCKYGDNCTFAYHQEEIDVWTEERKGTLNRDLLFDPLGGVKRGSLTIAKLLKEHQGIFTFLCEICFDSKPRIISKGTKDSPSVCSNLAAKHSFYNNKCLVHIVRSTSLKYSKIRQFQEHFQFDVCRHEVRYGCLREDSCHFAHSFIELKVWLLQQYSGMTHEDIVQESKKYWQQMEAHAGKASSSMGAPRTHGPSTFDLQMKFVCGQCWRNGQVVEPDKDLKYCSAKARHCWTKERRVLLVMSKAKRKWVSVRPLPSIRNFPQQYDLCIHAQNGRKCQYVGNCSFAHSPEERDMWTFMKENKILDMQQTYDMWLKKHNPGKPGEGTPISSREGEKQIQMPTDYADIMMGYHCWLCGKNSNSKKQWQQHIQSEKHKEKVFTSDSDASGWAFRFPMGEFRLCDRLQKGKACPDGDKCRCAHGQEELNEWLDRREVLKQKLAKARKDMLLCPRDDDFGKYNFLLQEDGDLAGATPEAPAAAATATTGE


Legend:
Test in all cases: co-IP
[1] = molecular target: Flag/HA-ZC3H7A (Zinc Finger CCCH-Type Containing 7A) (human) (UniProt Q8IWR0)
[2] = molecular target: T1, Flag/HA-ZC3H7B (Zinc Finger CCCH-Type Containing 7B) (human)
[3] = molecular target: Flag/HA-ZC3H7A (Zinc Finger CCCH-Type Containing 7A) (human) (UniProt Q8IWR0); remark: listed apart in the source
[4] = molecular target: T1, Flag/HA-ZC3H7B (Zinc Finger CCCH-Type Containing 7B) (human); remark: listed apart in the source

Molecule	binding [1]	binding [2]	binding [3]	binding [4]
CNOT1 (from UniProt A5YKK6 1-2376)	binds	binds	–	–
CNOT3 (from UniProt O75175 1-753)	binds	binds	–	–
Grb10-interacting GYF protein 2 (GIGYF2) (protein, UniProt Q6Y7W6 1-1299) MAAETQTLNFGPEWLRALSSGGSITSPPLSPALPKYKLADYRYGREEMLALFLKDNKIPSDLLDKEFLPILQEEPLPPLALVPFTEEEQRNFSMSVNSAAVLRLTGRGGGGTVVGAPRGRSSSRGRGRGRGECGFYQRSFDEVEGVFGRGGGREMHRSQSWEERGDRRFEKPGRKDVGRPNFEEGGPTSVGRKHEFIRSESENWRIFREEQNGEDEDGGWRLAGSRRDGERWRPHSPDGPRSAGWREHMERRRRFEFDFRDRDDERGYRRVRSGSGSIDDDRDSLPEWCLEDAEEEMGTFDSSGAFLSLKKVQKEPIPEEQEMDFRPVDEGEECSDSEGSHNEEAKEPDKTNKKEGEKTDRVGVEASEETPQTSSSSARPGTPSDHQSQEASQFERKDEPKTEQTEKAEEETRMENSLPAKVPSRGDEMVADVQQPLSQIPSDTASPLLILPPPVPNPSPTLRPVETPVVGAPGMGSVSTEPDDEEGLKHLEQQAEKMVAYLQDSALDDERLASKLQEHRAKGVSIPLMHEAMQKWYYKDPQGEIQGPFNNQEMAEWFQAGYFTMSLLVKRACDESFQPLGDIMKMWGRVPFSPGPAPPPHMGELDQERLTRQQELTALYQMQHLQYQQFLIQQQYAQVLAQQQKAALSSQQQQQLALLLQQFQTLKMRISDQNIIPSVTRSVSVPDTGSIWELQPTASQPTVWEGGSVWDLPLDTTTPGPALEQLQQLEKAKAAKLEQERREAEMRAKREEEERKRQEELRRQQEEILRRQQEEERKRREEEELARRKQEEALRRQREQEIALRRQREEEERQQQEEALRRLEERRREEEERRKQEELLRKQEEEAAKWAREEEEAQRRLEENRLRMEEEAARLRHEEEERKRKELEVQRQKELMRQRQQQQEALRRLQQQQQQQQLAQMKLPSSSTWGQQSNTTACQSQATLSLAEIQKLEEERERQLREEQRRQQRELMKALQQQQQQQQQKLSGWGNVSKPSGTTKSLLEIQQEEARQMQKQQQQQQQHQQPNRARNNTHSNLHTSIGNSVWGSINTGPPNQWASDLVSSIWSNADTKNSNMGFWDDAVKEVGPRNSTNKNKNNASLSKSVGVSNRQNKKVEEEEKLLKLFQGVNKAQDGFTQWCEQMLHALNTANNLDVPTFVSFLKEVESPYEVHDYIRAYLGDTSEAKEFAKQFLERRAKQKANQQRQQQQLPQQQQQQPPQQPPQQPQQQDSVWGMNHSTLHSVFQTNQSNNQQSNFEAVQSGKKKKKQKMVRADPSLLGFSVNASSERLNMGEIETLDDY	–	–	binds	binds

Next, values leading:

binding [1]	binding [2]	binding [3]	binding [4]	Molecule
binds	binds	–	–	4EHP (eIF4E Homologous Protein) (from UniProt O60573 1-245)
binds	binds	–	–	CNOT7 (from UniProt Q9UIV1 1-285)
